Laboratory results reported in paper doi:10.1101/2023.07.24.550265.
These are yes or no findings as the source states them, for the method shown. Binding seen in cells or lysates may run through a third protein. These calls come from enrichment with a bait or labelling near it, and not all partners need be listed.

Amino acid sequences for entries named in this document (tags omitted). Residues count along the entry.
UniProt P10721, residues 26-976: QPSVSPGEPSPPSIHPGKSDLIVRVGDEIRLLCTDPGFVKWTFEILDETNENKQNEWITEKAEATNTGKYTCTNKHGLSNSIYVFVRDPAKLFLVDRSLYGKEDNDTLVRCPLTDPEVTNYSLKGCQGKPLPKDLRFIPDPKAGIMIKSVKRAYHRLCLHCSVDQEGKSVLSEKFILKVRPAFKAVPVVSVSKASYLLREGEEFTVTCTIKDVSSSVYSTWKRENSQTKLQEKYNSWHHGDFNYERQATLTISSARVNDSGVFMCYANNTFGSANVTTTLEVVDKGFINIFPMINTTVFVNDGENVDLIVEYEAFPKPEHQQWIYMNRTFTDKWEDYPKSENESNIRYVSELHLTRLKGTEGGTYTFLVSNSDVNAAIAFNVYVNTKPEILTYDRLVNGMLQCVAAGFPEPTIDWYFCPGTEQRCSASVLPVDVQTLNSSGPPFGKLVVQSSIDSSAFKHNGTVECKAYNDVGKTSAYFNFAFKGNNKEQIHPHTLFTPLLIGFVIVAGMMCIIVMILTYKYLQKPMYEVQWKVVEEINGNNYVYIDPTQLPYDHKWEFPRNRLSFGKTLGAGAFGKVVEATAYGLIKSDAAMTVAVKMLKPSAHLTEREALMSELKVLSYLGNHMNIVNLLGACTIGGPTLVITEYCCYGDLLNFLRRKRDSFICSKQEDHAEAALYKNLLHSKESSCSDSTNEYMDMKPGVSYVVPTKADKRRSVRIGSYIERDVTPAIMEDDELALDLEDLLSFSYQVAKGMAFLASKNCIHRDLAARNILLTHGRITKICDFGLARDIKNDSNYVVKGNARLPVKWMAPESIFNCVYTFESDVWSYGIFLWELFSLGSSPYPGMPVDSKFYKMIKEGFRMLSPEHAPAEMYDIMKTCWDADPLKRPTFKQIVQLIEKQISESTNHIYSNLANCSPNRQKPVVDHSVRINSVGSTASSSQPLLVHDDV
UniProt P09874: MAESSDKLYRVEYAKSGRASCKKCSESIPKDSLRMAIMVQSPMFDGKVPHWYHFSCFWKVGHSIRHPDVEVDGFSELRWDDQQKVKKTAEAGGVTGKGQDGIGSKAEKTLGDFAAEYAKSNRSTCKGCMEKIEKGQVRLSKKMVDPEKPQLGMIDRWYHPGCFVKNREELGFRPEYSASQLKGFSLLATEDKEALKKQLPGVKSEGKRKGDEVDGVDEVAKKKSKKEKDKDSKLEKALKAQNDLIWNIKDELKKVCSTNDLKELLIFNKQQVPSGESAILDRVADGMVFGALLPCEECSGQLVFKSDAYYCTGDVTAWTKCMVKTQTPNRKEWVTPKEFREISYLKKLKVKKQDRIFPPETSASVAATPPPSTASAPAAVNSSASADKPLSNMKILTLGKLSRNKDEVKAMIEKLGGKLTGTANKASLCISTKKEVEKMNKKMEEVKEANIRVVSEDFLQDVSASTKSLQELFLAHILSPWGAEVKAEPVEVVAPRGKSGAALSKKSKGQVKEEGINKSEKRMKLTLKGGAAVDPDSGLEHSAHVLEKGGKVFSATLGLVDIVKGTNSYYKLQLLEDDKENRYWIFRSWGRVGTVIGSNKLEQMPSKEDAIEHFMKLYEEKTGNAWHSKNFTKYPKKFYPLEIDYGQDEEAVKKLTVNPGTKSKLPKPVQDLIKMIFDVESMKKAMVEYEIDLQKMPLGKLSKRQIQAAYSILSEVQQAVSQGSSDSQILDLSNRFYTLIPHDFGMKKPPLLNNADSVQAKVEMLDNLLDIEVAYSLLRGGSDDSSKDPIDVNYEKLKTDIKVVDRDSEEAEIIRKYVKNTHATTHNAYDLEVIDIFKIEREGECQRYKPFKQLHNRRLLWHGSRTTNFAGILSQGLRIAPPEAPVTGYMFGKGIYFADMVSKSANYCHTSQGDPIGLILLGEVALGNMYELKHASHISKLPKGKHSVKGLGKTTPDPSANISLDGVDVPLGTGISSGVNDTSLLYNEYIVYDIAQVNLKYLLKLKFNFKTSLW
UniProt P35222: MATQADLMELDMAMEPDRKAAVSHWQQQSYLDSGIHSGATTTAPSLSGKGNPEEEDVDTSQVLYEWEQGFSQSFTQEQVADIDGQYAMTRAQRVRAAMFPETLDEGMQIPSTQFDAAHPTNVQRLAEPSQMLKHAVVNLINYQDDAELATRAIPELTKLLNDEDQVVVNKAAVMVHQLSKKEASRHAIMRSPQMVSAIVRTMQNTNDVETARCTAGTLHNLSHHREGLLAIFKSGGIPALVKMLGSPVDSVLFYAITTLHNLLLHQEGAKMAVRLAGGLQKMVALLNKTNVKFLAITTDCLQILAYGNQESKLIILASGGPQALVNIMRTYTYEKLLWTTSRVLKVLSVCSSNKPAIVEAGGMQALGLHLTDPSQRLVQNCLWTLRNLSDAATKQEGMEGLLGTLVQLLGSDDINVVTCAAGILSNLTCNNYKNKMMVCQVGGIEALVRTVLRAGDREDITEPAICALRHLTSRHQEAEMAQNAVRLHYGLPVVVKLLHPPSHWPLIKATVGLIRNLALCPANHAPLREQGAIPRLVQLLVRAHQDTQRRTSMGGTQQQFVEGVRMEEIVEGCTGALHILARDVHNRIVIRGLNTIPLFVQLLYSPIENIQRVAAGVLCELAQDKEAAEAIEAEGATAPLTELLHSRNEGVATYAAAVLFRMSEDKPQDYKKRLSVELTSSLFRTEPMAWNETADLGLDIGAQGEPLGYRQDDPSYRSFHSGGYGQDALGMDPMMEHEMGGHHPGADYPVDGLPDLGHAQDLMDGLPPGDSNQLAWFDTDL

Target: KIT receptor tyrosine kinase (UniProt P10721)
Assay: affinity purification with mass spectrometry

binding | Substance
binds | Poly [ADP-ribose] polymerase 1 (from UniProt P09874 1-1014)
binds | β-catenin (from UniProt P35222 1-781)
binds | DNA-dependent protein kinase, catalytic subunit (from UniProt P78527 1-4128)
